Patent publication US20150306232A1 (BRANDEIS UNIVERSITY, priority 2012, published 2015)

Assay: general procedure: Fmoc solid-phase peptide synthesis; 2-chlorotrityl chloride resin (100~200 mesh and 0.3~0.8 mmol/g); DIPEA/HBTU
Settings: for isolated yield: whole synthesis; for conjugation yield: conjugation step

Row | Substance | conjugation yield [%] | also measured
1 | 2-(Naphthalen-2-yl)acetyl-(D)-Phe-(D)-Phe-(D)-Lys-(D)-Tyr phosphate |  | isolated yield: 57%
2 | {Acetyl(2-naphthyl)}-[dF][dF][dK](Paclitaxel(2'-O-succinyl))[d(pY)]-OH (SMILES CC(=O)O[C@H]1C(=O)[C@@]2(C)[C@H]([C@H](OC(=O)c3ccccc3)[C@]3(O)C[C@H](OC(=O)[C@H](OC(=O)CCC(=O)NCCCC[C@@H](NC(=O)[C@@H](Cc4ccccc4)NC(=O)[C@@H](Cc4ccccc4)NC(=O)Cc4ccc5ccccc5c4)C(=O)N[C@H](Cc4ccc(OP(=O)(O)O)cc4)C(=O)O)[C@@H](NC(=O)c4ccccc4)c4ccccc4)C(C)=C1C3(C)C)[C@]1(OC(C)=O)CO[C@@H]1C[C@@H]2O) | 37 | 
3 | 2-(Naphthalen-2-yl)acetyl-(L)-Phe-(L)-Phe-(L)-Lys-(L)-Tyr phosphate |  | isolated yield (total yield): 64%
4 | 2-(Naphthalen-2-yl)acetyl-(D)-Phe-(D)-Phe-(D)-Lys(NBD)-(D)-Tyr phosphate | 48 | 

Non-standard residues stand in square brackets, D forms with d. *: point of attachment. Paclitaxel(2'-O-succinyl) = CC(=O)O[C@H]1C(=O)[C@@]2(C)[C@H]([C@H](OC(=O)c3ccccc3)[C@]3(O)C[C@H](OC(=O)[C@H](OC(=O)CCC(=O)*)[C@@H](NC(=O)c4ccccc4)c4ccccc4)C(C)=C1C3(C)C)[C@]1(OC(C)=O)CO[C@@H]1C[C@@H]2O; d(pY) = N[C@H](Cc1ccc(OP(=O)(O)O)cc1)C(=O)O; Acetyl(2-naphthyl) = O=C(Cc1ccc2ccccc2c1)*
